The nature of the data set: Evaluation of odor of solvents by panel. To be noted: panel of 13 male and female members; score given by highest number of panelists. Details: key: good (acceptable); bad (not acceptable).
For the molecule `Cc1ccccc1C(=O)OCc1ccccc1` [Benzyl o-toluate], the “Odor of the composition” value was “good”.

As for `Cc1cccc(COC(=O)c2ccccc2)c1` [m-Methylbenzyl Benzoate], the “Odor of the composition” value is reported as “bad”.

For `CC(CCOC(=O)c1ccccc1)OC(=O)c1ccccc1` (stereo not shown) [1,3-Butylene glycol Dibenzoate], the “Odor of the composition” value is listed as “good”.

For the molecule `Cc1ccccc1C(=O)OCCc1ccccc1` [2-Phenylethyl o-toluate], the “Odor of the composition” value is reported as “good”.

Consider `Cc1cccc(C(=O)OCc2ccccc2)c1` [Benzyl m-toluate], for which the “Odor of the composition” value is “bad”.

Take `CCc1ccc(C(=O)OCc2ccccc2)cc1` [Benzyl 4-Ethylbenzoate]: the “Odor of the composition” value is reported as “bad”.

For `Cc1ccccc1C(=O)OC1CCCCC1` [Cyclohexyl o-toluate], the “Odor of the composition” value is “good”.

With `Cc1ccc(C(=O)OC(C)c2ccccc2)cc1` (stereo not shown) [1-Phenylethyl p-toluate], the “Odor of the composition” value is recorded as “bad”.

In the case of `CCC(=O)OCCc1ccccc1` [2-Phenylethyl Propionate], the “Odor of the composition” value was “good”.

Turning to `CCCCCC(=O)OCCc1ccccc1` [2-Phenylethyl Hexanoate], the “Odor of the composition” value is “bad”.

As to `O=C(OC1CCCCC1)c1ccccc1` [Cyclohexyl Benzoate], the “Odor of the composition” value is reported as “good”.

Consider `CC(COC(=O)c1ccccc1)OC(=O)c1ccccc1` (stereo not shown) [Propylene glycol Dibenzoate], for which the “Odor of the composition” value is recorded as “good”.

On to `O=C(OCCc1ccccc1)C1CCCCC1` [2-Phenylethyl Cyclohexanoate], for which the “Odor of the composition” value is given as “bad”.

`CCC(OC(=O)c1ccccc1)c1ccccc1` (stereo not shown) [1-Phenylpropyl Benzoate]: the “Odor of the composition” value is “bad”.

As for `O=C(OCCCc1ccccc1)c1ccccc1` [3-Phenylpropyl Benzoate], the “Odor of the composition” value is reported as “bad”.

With `O=C(OCCC1CCCCC1)c1ccccc1` [2-Cyclohexylethyl Benzoate], the “Odor of the composition” value is recorded as “good”.

On to `CCN(CC)C(=O)c1cccc(C)c1` [N,N-Diethyl m-toluamide], for which the “Odor of the composition” value is on record as “good”.

As to `O=C(OCCc1ccccc1)c1ccccc1` [Phenethyl benzoate], the “Odor of the composition” value is given as “good”.

`CC(C)(C)c1ccc(C(=O)OCc2ccccc2)cc1` [Benzyl 4-tert-Butylbenzoate]: the “Odor of the composition” value is reported as “bad”.

As to `O=C(OCc1ccccc1)c1ccccc1O` [Benzyl Salicylate], the “Odor of the composition” value was “good”.

As to `Cc1ccccc1COC(=O)c1ccccc1` [o-Methylbenzyl Benzoate], the “Odor of the composition” value was “bad”.

As to `O=C(OCc1ccccc1)c1ccccc1` [Benzyl Benzoate], the “Odor of the composition” value is “bad”.

These data come from patent publication US20240374492A1, “A SUNSCREEN COMPOSITION COMPRISING AVOBENZONE AND A METHOD FOR PHOTOSTABILIZATION” (ISP Investments LLC, priority 2021, published 2024).
